Data from the ROBIN nucleic acid binder screens, doi:10.1002/anie.202211358.

Oligonucleotides screened, 5′ to 3′:
SAM-II: SAM-II riboswitch RNA pseudoknot, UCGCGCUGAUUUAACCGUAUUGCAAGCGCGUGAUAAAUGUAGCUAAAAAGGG. About 200 hits among about 21,000 compounds.
PreQ1: PreQ1 riboswitch RNA pseudoknot, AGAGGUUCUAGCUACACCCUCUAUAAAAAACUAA. From B. subtilis. About 170 hits among about 24,000 compounds.
TPP: TPP riboswitch RNA three-way junction, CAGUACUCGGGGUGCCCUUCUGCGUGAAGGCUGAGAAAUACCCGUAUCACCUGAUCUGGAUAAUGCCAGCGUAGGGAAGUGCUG. About 160 hits among about 24,000 compounds.

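Compounds were printed on reactive glass slides in duplicate spots, a dye-labelled oligonucleotide was laid over them, and the fluorescence left after washing was read. For the PreQ1, TPP and SAM-II riboswitches the laboratory earlier reported (doi:10.1038/s41467-019-09493-3) 1 µM RNA, 2 h, and a rule that included a mean Z-score above 3 (spot signal-to-noise against the whole library), a score well above that on a control array, and duplicate spots agreeing (coefficient of variation under 100). The data file gives only the calls; its cut-offs may differ, and compounds hitting several targets are kept. These are primary screening calls, not affinities; a compound without a hit may have attached poorly or may still bind in solution.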 A compound is marked hit if it was called a hit and no hit if it was screened but was not. This is an unselected part of the compounds tested. A dash means that no call is listed here.

Compound,SAM-II,PreQ1,TPP
CC(C)c1cc(Nc2ccccc2)n2nc(-c3cccnc3)nc2n1,-,no hit,no hit
O=C(c1cncs1)N1CCN(Cc2c[nH]nn2)CC(O)C1 (centres undefined),no hit,no hit,no hit
CCCCNc1cc(C)nc2c(C)c(-c3ccc(OC)c(OC)c3)nn12,-,no hit,no hit
CN1C[C@H](NC(=O)C2CCN(Cc3ccco3)CC2)C[C@H]1CO,no hit,no hit,no hit
Cc1cc(NC(=O)Nc2cc(F)ccc2F)no1,no hit,no hit,no hit
CCOc1ccc(CCNC(=O)[C@H]2[C@@H]3CNC[C@@H]32)cc1,no hit,no hit,no hit
O=C(O)CC(O)c1nc2ccccc2[nH]1 (centres undefined),no hit,no hit,no hit
COc1cc([N+](=O)[O-])ccc1NC(=O)Oc1ccc(NC(C)=O)cc1,no hit,no hit,no hit
O=C(NCC[C@@H]1CCCN1)c1cnc(-c2cccnc2)nc1O,no hit,no hit,no hit
CCCCc1ccc(NS(=O)(=O)c2ccc(C)c(C(=O)N3CCN(c4cccc(C)c4C)CC3)c2)cc1,no hit,no hit,no hit
Cc1cnc(NC(=O)C2=C(O)c3ccccc3S(=O)(=O)N2C)s1,no hit,no hit,no hit
Cc1nc(NCCc2ccc3c(c2)OCCO3)c2cc(-c3ccccc3)sc2n1,no hit,no hit,no hit
COc1ccc(OC)c(NC(=O)c2cc3oc4ccccc4c3cc2O)c1,no hit,no hit,no hit
CCCc1nc(-c2cc3cccc(C)c3nc2NCc2ccc(OC)c(OC)c2)no1,-,no hit,no hit
CCCCSc1nnc2c(n1)OC1(CCCC1)Nc1ccc(Br)cc1-2,no hit,hit,no hit
Cc1cc(N2C[C@H](OC(C)C)[C@@H](O)C2)nc(N)n1,no hit,no hit,no hit
CCCc1n(CC(O)COc2ccccc2)c2ccccc2[n+]1C (centres undefined),no hit,no hit,no hit
Cc1c(C(=O)NN2CCCCC2)nn(-c2ccc(Cl)cc2Cl)c1-c1ccc(Cl)cc1,no hit,no hit,no hit
O=C(C(O)c1ccc(F)cc1)N1CCC(c2ncc[nH]2)CC1 (centres undefined),no hit,no hit,no hit
CCOC(=O)c1sc(N)c(C(=O)OCC)c1C,no hit,no hit,no hit
CCCCc1nc2[nH]nc(N)c2c2c1CCC2,no hit,no hit,no hit
CC(O)c1cccc(Nc2ncnc3c2oc2ccccc23)c1 (centres undefined),no hit,no hit,no hit
Cc1ncsc1CCC(=O)NCCCNc1cccnc1,no hit,no hit,no hit
CCN1CCCC1CNc1nc2ccc(C(=O)c3ccccc3)cc2n2cnnc12 (centres undefined),-,no hit,no hit
COc1cccc(-c2ccc(CNCc3ccccn3)o2)c1,no hit,no hit,no hit
COc1cc2c(cc1OC)[N+]([O-])=C(c1ccccc1)C2=O,no hit,no hit,no hit
CN(CCO)C[C@@H]1CN(C(=O)c2sccc2S(N)(=O)=O)C[C@@H]1CO,no hit,no hit,no hit
CCC(O)Cn1nc(-c2ccncc2)nc1C1(N2CCCC2)CCCC1 (centres undefined),no hit,no hit,no hit
CCOC(=O)C1(C)C=C(Nc2ccc(O)c(C(=O)O)c2)C(=O)N1c1ccccc1 (centres undefined),no hit,no hit,no hit
Nc1c(Br)cc(C(=O)OCC(=O)c2ccc(Br)cc2)cc1Br,no hit,no hit,no hit
CC(C)c1ccc(C#N)c(N2CC[C@H](N3CCOCC3)[C@H](CCCO)C2)n1,no hit,no hit,no hit
CCN(c1ccccc1)c1nc(Cl)nc2c1cnn2C,no hit,no hit,no hit
O=C(Nc1cccc(OC(F)(F)F)c1)N1C[C@H](O)[C@@H](N2CCOCC2)C1,no hit,no hit,no hit
CN1C(=O)c2ccccc2Cc2c(NCc3ccccc3)ncnc21,no hit,no hit,no hit
O=C(O)c1c(CNCc2ccco2)c2ccccc2n1Cc1ccccc1,-,no hit,no hit
CCC1CN(C(=O)c2coc(CN3CCN(c4ncccn4)CC3)n2)CCN1 (centres undefined),no hit,no hit,hit
Cc1ccc(CNc2cccc(C(=O)N(C)CC3CCCCO3)c2)s1 (centres undefined),no hit,no hit,no hit
COC(=O)CSc1nc(N)cc(O)n1,no hit,no hit,no hit
CCOC(=O)c1sc2nc(N3CCOCC3)c3c(c2c1N)CCCC3,no hit,no hit,no hit
Cc1nc(CN2CC[C@@H](c3ccc4c(c3)OCO4)[C@H](O)C2)co1,no hit,no hit,no hit
Cc1ccc(C(=O)c2sc3nc(C)cc(-c4cccs4)c3c2N)cc1,no hit,no hit,no hit
CSCc1ccc(C(=O)N2CCOCC(CO)C2)o1 (centres undefined),no hit,no hit,no hit
CCOC(=O)N1CCN(c2c(NC3CCCC3)c(=O)c2=O)CC1,-,no hit,no hit
O[C@H]1CN[C@H](c2ncnn2-c2cccc3c2CCC3)C1,no hit,no hit,no hit
O=C1c2ccccc2C2=C3C(O)=NN=C3CCN12,no hit,no hit,no hit
COc1ccc(C=Cc2nc(C#N)c(NCC3CCCO3)o2)cc1OC (centres undefined),-,no hit,no hit
Cc1cccc(-c2n[nH]cc2C(=O)N(C)CC2(CO)CCOCC2)c1,no hit,no hit,no hit
CC1CC(C)(C)NC2(CCCC2)N1 (centres undefined),no hit,no hit,no hit
Cc1c(C(=O)NC2CC(C)(C)NC(C)(C)C2)oc2ccccc12,no hit,no hit,no hit
CNC(=O)[C@@H]1C[C@@H](N)CN1C(=O)CSC12CC3CC(CC(C3)C1)C2,no hit,no hit,no hit
O=C1N(CCc2ccccc2)CCCC1(O)CN1CCC2(CCNCC2)C1 (centres undefined),no hit,no hit,no hit
O=C(Cc1c[nH]cn1)N1CCN(Cc2nccn2C2CC2)CC(O)C1 (centres undefined),no hit,no hit,no hit
CN1CCC[C@H]1CCO[C@](C)(c1ccccc1)c1ccc(Cl)cc1,no hit,no hit,no hit
CCCCn1cnc2cc(NCc3ccccc3OCC)ccc21,no hit,no hit,no hit
COc1cc(O)c2c(c1)C1OC1C[C@H](O)[C@H](O)C(=O)/C=C\C[C@H](C)OC2=O (some centres undefined),no hit,no hit,no hit
CCc1nc2ccccc2n1CC(O)COc1cccc(C)c1C (centres undefined),-,no hit,no hit
O=[N+]([O-])c1cc([N+](=O)[O-])c2cccnc2c1O,no hit,no hit,no hit
Nc1cc(O)nc(CCNC(=O)CC2C(=O)NCCN2C2CCCC2)n1 (centres undefined),no hit,no hit,no hit
Nc1nc2n(c1C(=O)c1ccccc1)CCCC2,no hit,no hit,no hit
N#CCCNc1ccccc1C(=O)O,no hit,no hit,no hit
CN(C)Cc1cc(C(F)(F)F)ccc1C(O)(c1ccccc1)c1ccccc1,no hit,no hit,no hit
CCOc1ccccc1Nc1cc(-c2ccccc2)nc(C)n1,-,no hit,no hit
Cc1ccc2[nH]c3c(c2c1)CCCC3N (centres undefined),no hit,no hit,no hit
CSc1ccccc1NC(=O)N(C)CC1(CO)CCOCC1,no hit,no hit,no hit
CCCc1c(OC)c2c(c(OC)c1C1C(C(=O)OCC)=C(N)OC3=C1C(=O)CCC3)OCO2 (centres undefined),no hit,no hit,no hit
O=C(N[C@H]1CC[C@H]1NC1Cc2ccccc2C1)c1ccccc1-c1ncc[nH]1,no hit,no hit,no hit
COc1ccccc1C1(CCNCc2ccco2)CCOC(C(C)C)C1 (centres undefined),-,no hit,no hit
Cc1nccn1-c1ccccc1CNCC1(O)CCNC1 (centres undefined),no hit,no hit,no hit
Nc1c(C(=O)c2ccc(Oc3ccccc3)cc2)oc2ccccc12,no hit,no hit,no hit
CO[C@@H]1C(N(C)C(=O)c2ccccc2)C[C@H]2O[C@]1(C)n1c3ccccc3c3c4c(c5c6ccccc6n2c5c31)C(=O)NC4=O (some centres undefined),no hit,no hit,no hit